In paper PMC7755654:
For at least one entry, the source does not settle the construct or the ends of the probe.

Target: His6-Crp (cAMP receptor protein) (Shewanella putrefaciens CN32) (UniProt A0ABX8XCW1)
Assay: DNase I footprinting
Conditions: 2 uM cAMP, 0.5 and 1.0 uM His6-Crp, protected -375 to -338, footprinting: 20 ul, 300 ng probe, 25 C 40 min, buffer not given, recombinant protein, residues 1-211, protein details: N-terminal His6 (pET-28a), label: 5'-FAM on forward strand, probe letters rebuilt from the primers and the genome

GTAATAATGAACGGCTCGATTCTAGCACAGCGGGATTCTGCTGCAATGCGTTAACTCACATTTCAGGGAATGACAAGACCTCATATTTATCTCAATGAGATACCCATTGGCTATCAATGGAGAACAGTTTTGCCAACATTGATATTGGTTTATGTCGTATCAGGGTATCAACAAAGTGTGCCATCGATTACAATTTCACATTATGAAAATAACTTTGTAAAAAGGTAGGTTTGTTTTTGCAAATATTCGATAACTTGCGATTGTTTGATGATTGCATTAGCTTTAGTTGAAGTGCATAAATGCTCTGCTATAGGTCTGTTTTGACCAATTATTGTCCTGATAGTTAGAGCTAGGTCTCATTTTGCGCTTTTAAGTTTAATTTAATCGATAGATTTAGGCTTAGAATCAAATTTCTAATAAGTGAAATAGCATAAACTAGACTTATAAAAACTAATTTTGGCAATTTTGGAGATAGAGTAATGAACTGGCGTGCACT (double strand) [cymA promoter footprinting probe]
binding result: binds
